Values joined by “and” are separate entries in the source; they are usually repeats but may differ in a detail not shown here. Equal values may be shown once. Screen size: about 340,000 compounds; about 170 (0.05%) were called active. The inconclusive results got no clear call from the source; some entries with a clear call stand among them for comparison. The call rests on the fitted dose curve; in most records, active means well fitted inhibition curve with a large enough effect in the signal ratio, with a control signal flat (not every such curve was filed as active); inconclusive means small, poorly fitted or top-dose-only effect, or effect the other way, or a change in a side signal; inactive means flat fitted curve, though single readings scatter; the % refers to the signal ratio. Potencies of inconclusive entries are doubtful fits and often do not repeat.
Assay: qHTS Assay to Find Inhibitors of Chronic Active B-Cell Receptor Signaling;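 on activity change, negative = inhibition: plate controls were basal doxycycline-induced cells for no effect and cells given 10 µM MG132 for full effect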
Details: ABC-DLBCL IkBa-CBG/CBR reporter, luminescence ratio (green luciferase fused to IkBa over red control in TMD8 lymphoma cells), 4 h; activity change, negative = inhibition: at 46.1 µM (top of the series)
Outline: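 TMD8 ABC-DLBCL cells carrying doxycycline-inducible green luciferase fused to IkappaBalpha plus unfused red luciferase were exposed to compounds (up to 46 uM) for 4 hrs at 37C. Activity came from the overlap-corrected green/red luminescence ratio.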
Potency means the concentration at half of the fitted maximal effect.

Row | SMILES | activity change, negative = inhibition | Potency
1 | COc1ccc(-c2cn3c4c(sc3n2)CCCC4)cc1 | inconclusive: 2.16% | –
2 | CCOC(=O)C(CC)n1nc(C)n2c(cc3occc32)c1=O (stereo unspecified) | inconclusive: 5.02% | –
3 | O=c1[nH]c(CSc2ccccc2)nc2c1oc1ccccc12 | – | inconclusive: 35.5 µM [rising, single point]
4 | Nc1nc2ccc(OC(F)(F)F)cc2s1 | inconclusive: -0.696% and inconclusive: -9.85% | –
5 | N#Cc1cccc(NC(=O)CSc2ccc3c4c(cccc24)C(=O)c2ccccc2-3)c1 | inconclusive: -1.77% | –
6 | O=C(Cc1cccc2ccccc12)NCC(=O)Nc1ccccc1F | inactive: 1.81% | –
7 | Cc1cc(OCC(=O)c2ccc(F)cc2)ccc1N1C(=O)CCC1=O | inconclusive: -2.39% | –
8 | Cc1cccc(CCNC(=O)c2cc(S(=O)(=O)N3CCCC3)cn2C)c1 | inconclusive: 12.8% | –
9 | Cc1nnc(SCC(=O)NC2CCCc3c2cnn3-c2ccc(F)cc2F)o1 (stereo unspecified) | inactive: 6.73% | –
10 | O=C(N/N=C/c1ccc[nH]1)c1cccc([N+](=O)[O-])c1 | – | inconclusive: 16.4 µM [falling, single point]
11 | Cc1ccc(-c2c3c(=O)n(C)c(=O)n(C)c3cn2-c2ccccc2O)cc1 | inconclusive: -19.8% | –
12 | COc1ccc2cnnc(SCC(=O)Nc3ccc(C(=O)O)cc3)c2c1OC | – | inconclusive: 29.1 µM [falling, single point]
13 | Cc1nc(-c2ccccc2)sc1-c1ccnn1C | inconclusive: 23.4% | –
14 | CC(C)[C@H](NC(=O)[C@@H]1Cc2ccccc2CN1C(=O)OC(C)(C)C)C(=O)NCc1ccco1 | inactive: 6.69% | –
15 | CCn1c(SCC(=O)NCCc2ccc(Cl)cc2)nnc1-c1cccs1 | inconclusive: -18.7% | –
16 | COC(=O)[C@H](Cc1ccccc1)NC(=O)c1ccc2ccccc2n1 | inconclusive: 7.29% | –
17 | O=[N+]([O-])c1ccc(N/N=C/c2ccccc2O)cc1 | – | inconclusive: 35.5 µM [falling, partial curve, poor fit]
18 | Cc1cc(=O)oc2c1ccc1oc(/C(=N/O)c3ccccc3)c(C)c12 | inconclusive: -9.78% | –
19 | COc1cc(C(=O)NCC(=O)N2CCN(S(=O)(=O)c3ccccc3C(F)(F)F)CC2)cc(OC)c1OC | inconclusive: 0.0649% | –
20 | O=C(NNC1=C(C(=O)C(F)(F)F)CCC1)c1ccccc1O | – | inconclusive: 3.66 µM [rising, full curve]
21 | COc1ccc(CNC(=O)C(c2ccc(C)o2)N(C(=O)c2snc(C(N)=O)c2N)c2ccccc2OC)cc1 (stereo unspecified) | inconclusive: 8.31% | –

Row | SMILES | activity change, negative = inhibition | Potency
22 | Cc1ccccc1C(=O)N1CC(=O)Nc2ccc(F)cc2C1c1ccc(F)cc1 (stereo unspecified) | inconclusive: -7.1% | –
23 | COc1ccc(C(CNC(=O)Nc2ccc(Cl)cc2)N2CCN(C)CC2)cc1 (stereo unspecified) | inconclusive: 8.17% | –
24 | CCn1c(SCC(=O)O)nnc1-c1ccccc1OC | – | inconclusive: 17.8 µM [falling, partial curve, poor fit]
25 | COc1ccc(CCNC(=O)COc2ccc(-c3ccc(C)cc3)cc2)cc1OC | inactive: -0.821% | –
26 | CCc1ccc(OCC(=O)Nc2ccncc2)c(Br)c1 | inconclusive: 1% | –
27 | Oc1ccccc1-c1cc(-c2cccc(F)c2)n[nH]1 | – | inconclusive: 22.4 µM [falling, partial curve]
28 | O=C(Nc1nc2ccccc2n1CCN1CCCC1)c1ccc(Cl)cc1 | inconclusive: -19.8% | –
29 | O=C(NNC(=S)NC(=O)c1cccnc1)c1ccc(Cl)cc1 | – | inconclusive: 20 µM [falling, single point]
30 | Cc1cccc2cc(CN(C(=O)c3cccs3)c3ccccc3)c(=O)[nH]c12 | inconclusive: 0.943% | –
31 | CC(=O)Nc1ccccc1-c1nn[nH]n1 | inconclusive: -8.1% | –
32 | Cc1ccc(-n2c(C)cc(/C=N/Nc3ccc([N+](=O)[O-])cn3)c2C)c(C)c1 | inconclusive: 11.4% | –
33 | CC(C)NC(=O)c1nc2ccccc2s1 | inconclusive: -3.45% | –
34 | Cc1cccc(NC(=O)c2nc(S(C)(=O)=O)ncc2Cl)c1 | – | inconclusive: 3.16 µM [rising, full curve]
35 | CCOC(=O)C1(Cc2cccc(F)c2)CCN(Cc2cnc(C)s2)CC1 | inconclusive: -13.9% | –
36 | Cc1cccc(NC(=O)CSc2nc(-c3ccco3)nc3cc(=O)[nH]n23)c1 | inconclusive: 16.5% | –
37 | Nc1c(C(=O)c2ccc(Cl)cc2)sc2nsc(SCCN3CCOCC3)c12 | inactive: 0.375% | –
38 | Cc1ccc2oc(-c3cccc(NC(=O)c4ccc(Br)o4)c3C)nc2c1 | inconclusive: 0.608% | –
39 | O=C(Nc1ccc(F)cc1)c1c(Cl)nc2ccccn12 | inconclusive: 2% | –
40 | NS(=O)(=O)c1ccc(CCNCc2cc(Cl)ccc2OCc2ccccc2)cc1 | inconclusive: -20% | –
41 | O=C(N/C(=C\c1cn(-c2ccccc2)nc1-c1ccc(Cl)cc1)C(=O)N1CCOCC1)c1ccccc1 | inconclusive: 10.4% | –
42 | Cc1ccc(C)c(C2NC(=O)c3ccccc3N2)c1 (stereo unspecified) | – | inconclusive: 35.5 µM [falling, partial curve, poor fit]

Row | SMILES | activity change, negative = inhibition | Potency
43 | COc1ccc(NC(=O)CC2CCCC2)cc1S(=O)(=O)N1CCCCC1 | inconclusive: 1.27% | –
44 | CSc1ccc(Cl)c(C(=O)NCCOc2cc(C(C)C)ccc2C)c1 | inactive: 3.07% | –
45 | O=C(c1ccccc1Sc1cccc2ccccc12)N1CCOCC1 | inconclusive: -15.6% | –
46 | NNC(=O)CN1C(c2ccccc2)=Nc2ccc(Br)cc2C1c1ccccc1 (stereo unspecified) | inconclusive: -13.6% | –
47 | Cc1c(OCc2ccc([N+](=O)[O-])cc2)ccc2c3c(c(=O)oc12)CCC3 | inconclusive: 2.29% | –
48 | COc1cccc(CN(C)C(=O)c2ccccc2Sc2ccccc2C#N)c1OC | – | inconclusive: 5.01 µM [falling, partial curve]
49 | CCCOc1ccc(N/C=C/C(=O)C(C)(C)C)cc1 | inconclusive: 6.37% | –
50 | COc1ccc(C(=O)n2nc(-c3ccccc3)nc2N)cc1OC | inconclusive: 2.91% | –
51 | CC(=O)N1CCC(=NNS(=O)(=O)c2cccc([N+](=O)[O-])c2)CC1 | inconclusive: 5.42% | –
52 | Clc1ccc(-c2n[nH]c3c2Cc2ccccc2-3)cc1Cl | inconclusive: 13.8% | –
53 | O=C(CSCc1cccs1)N1CCCC1 | inconclusive: 10.5% | –
54 | Cc1ccc(OS(=O)Nc2cccc3nccnc23)cc1 (stereo unspecified) | inconclusive: -10.9% | –
55 | N#C/C(C(=O)N1CCOCC1)=C1/SC(Cc2ccccc2)C(=O)N1c1ccccc1 (stereo unspecified) | – | inconclusive: 35.5 µM [falling, single point]
56 | COc1ccccc1Nc1ccncc1[N+](=O)[O-] | – | inconclusive: 12.6 µM [rising, partial curve, poor fit]
57 | Cc1ccccc1N(CC(=O)Nc1ccccc1C(=O)NCc1ccco1)S(=O)(=O)c1ccccc1 | inconclusive: 8.38% | –
58 | CC(=O)Nc1sc(C)c(C)c1C(=O)OC(C)C | inconclusive: 3.87% | –
59 | Cc1ccccc1-c1cc(C(=O)NCc2cccc(Br)c2)nn1CC1CC(c2cccc([N+](=O)[O-])c2)=NO1 (stereo unspecified) | inactive: -0.15% | –
60 | CCOc1ccc(OCCC(=O)OCC(=O)NCc2ccc(Cl)cc2)cc1 | inactive: 4.25% | –
61 | COc1ccc2nc(NC(=O)CCNC(=O)c3ccccc3Cl)sc2c1 | inconclusive: -0.613% | –
62 | Cc1cc2c(cc1C)/C(=N/NC(=O)c1ccccn1)CCC2 | – | inconclusive: 35.5 µM [falling, single point]
63 | COc1cc(CN2CCNC(=O)C2CC(=O)N2CCCN(C(C)=O)CC2)cc(OC)c1 (stereo unspecified) | inactive: -1.86% | –

Row | SMILES | activity change, negative = inhibition | Potency
64 | Cc1ccc(NC(=O)C2Cc3ccccc3CN2C(=O)c2ccccc2)cc1Cl (stereo unspecified) | – | inconclusive: 9.2 µM [falling, partial curve]
65 | CSc1ccc(S(=O)(=O)Nc2c(C)cccc2C)cc1 | inconclusive: 9.9% | –
66 | C/C=C(\C)CN1CCC(Oc2cccc(C(=O)NCc3ccccn3)c2)CC1 | inactive: 1.72% | –
67 | O=c1c(-c2ccc3c(c2)OCCO3)coc2cc(OC3OC(CO)C(O)C(O)C3O)ccc12 (stereo unspecified) | inconclusive: -2.62% | –
68 | CSCCNC(=O)c1cccc(Cl)c1 | inconclusive: 7.69% | –
69 | COC(=O)c1sc2ncn(-n3c(C)ccc3C)c(=O)c2c1C | – | inconclusive: 29.1 µM [falling, single point]
70 | COC(=O)c1cc2occc2n1CC(=O)Nc1cc(OC)cc(OC)c1 | inactive: 2.17% | –
71 | CC(C)Cn1cnc2c(c1=N)C(c1ccccc1)C1=C(CC(C)(C)CC1=O)O2 (stereo unspecified) | – | inconclusive: 7.08 µM [rising, partial curve, poor fit]
72 | Cc1cc(NC(=O)Cn2cnc3sc(C)c(-c4ccccc4)c3c2=O)no1 | inconclusive: -1.51% | –
73 | c1coc(-c2ccnc3nc(-n4cccc4)nn23)c1 | inactive: -14.7% | –
74 | C=CCn1c(SCC(=O)Nc2nc(C)cs2)nnc1C(CO)NC(=O)c1ccccc1 (stereo unspecified) | inconclusive: 0.461% | –
75 | COc1ccc(C2Nc3ccccc3C(=O)N2c2ccccc2)cc1Cn1cc([N+](=O)[O-])cn1 (stereo unspecified) | – | inconclusive: 25.9 µM [falling, partial curve]
76 | COc1cc(OC)cc(C(=O)NC(=S)Nc2ccc(N3CCCC3)cc2)c1 | – | inconclusive: 20.6 µM [falling, partial curve]
77 | Cc1cc2c(s1)c1c(n2C)C(=O)N(Cc2ccccc2F)C1 | – | inconclusive: 23.1 µM [rising, partial curve, poor fit]
78 | O=C(N/N=C/c1ccc[nH]1)c1cc2ccccc2cc1O | – | inconclusive: 25.1 µM [falling, partial curve]
79 | CC(C)(C)c1ccc(C(CC(=O)O)NC(=O)Cc2ccccc2)cc1 (stereo unspecified) | inconclusive: 0.776% | –
80 | Cc1ccc(Cc2c(C)c(C#N)c3[nH]c4ccccc4n3c2=O)cc1 | inactive: 7.81% | –
81 | COc1ccc(NC(=O)C(=O)NNC(=O)COc2ccc(OC)cc2)cc1 | – | inconclusive: 35.5 µM [falling, single point]

3 compounds out of the list, sorted by molar mass, descending.
Row | SMILES | activity change, negative = inhibition | Potency
76 | COc1cc(OC)cc(C(=O)NC(=S)Nc2ccc(N3CCCC3)cc2)c1 | – | inconclusive: 20.6 µM [falling, partial curve]
71 | CC(C)Cn1cnc2c(c1=N)C(c1ccccc1)C1=C(CC(C)(C)CC1=O)O2 (stereo unspecified) | – | inconclusive: 7.08 µM [rising, partial curve, poor fit]
69 | COC(=O)c1sc2ncn(-n3c(C)ccc3C)c(=O)c2c1C | – | inconclusive: 29.1 µM [falling, single point]

— PubChem BioAssay AID493014 (National Center for Advancing Translational Sciences (NCATS), 2011)
